From patent US7829560B2, “1,4-disubstituted naphthalenes as inhibitors of P38 MAP kinase” (Arqule, Inc., priority 2004, dated 2010) come the findings set out here.

Protein sequences, listed by entry. Tags and fused reporters are not part of them.
UniProt Q16539, whole entry: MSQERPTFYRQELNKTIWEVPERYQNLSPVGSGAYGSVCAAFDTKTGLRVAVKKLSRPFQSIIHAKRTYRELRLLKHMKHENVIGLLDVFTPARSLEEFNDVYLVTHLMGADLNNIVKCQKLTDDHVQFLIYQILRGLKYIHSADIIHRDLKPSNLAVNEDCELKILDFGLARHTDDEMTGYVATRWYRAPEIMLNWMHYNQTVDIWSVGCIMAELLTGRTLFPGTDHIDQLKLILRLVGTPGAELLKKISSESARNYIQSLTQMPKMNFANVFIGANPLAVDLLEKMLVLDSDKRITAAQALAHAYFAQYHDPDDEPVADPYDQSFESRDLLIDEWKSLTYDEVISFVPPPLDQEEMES

For assay [1], the system named is TNFα release from THP-1 cells. Briefly: Inhibition of TNFα release from LPS-stimulated THP-1 cells, ELISA. The following applies: read-out: [CELL] THP-1, IC50, TNF ALPHA, ELISA.
The target in assay [2] is p38α (Homo sapiens, UniProt Q16539). Briefly: p38 MAP Kinase assay: inhibition of ATF2 phosphorylation, ELISA. In kind it is biochemical.

Structures were worked out from names or drawings and are uncertain.

Take `O=C(Nc1ccc(Oc2ccnc(NC[C@@H]3CCCO3)n2)c2ccccc12)c1cc(F)cc(N2CCCCC2)c1`: the half-inhibitory concentration (IC50) in assay [1] was 0.011 µM.

Regarding `Cc1cc(F)ccc1-c1cccc(C(=O)Nc2ccc(OCCN3CCOCC3)c3ccccc23)c1` [Compound B245], in assay [2] (10 uM, substrate ATF2), the “[ENZ] P38 ALPHA, PCT INH, ELISA (10 uM;ATF2) (Percent)” value worked out at 83%. Also, the IC50 in assay [2] (read-out: [ENZ] P38 ALPHA, IC50, ELISA, ATF2 phosphorylation) stood at 0.487 µM; in assay [1], 3.65 µM.

The IC50 is the concentration that inhibits the measured activity by half.
